Test results reported in patent US4548820A, “Xanthine compounds” (Adir, priority 1982, dated 1985).
For at least one compound, name, drawing or mass did not settle the structure.

Experiments:
[1] = system: anaphylactic cutaneous reaction; experiment: Anaphylactic cutaneous reaction in the rat; format: in vivo; conditions: single administration of 20 mg/kg per os
[2] = system: A 2 receptors; experiment: Purinergic A 2 receptors; format: binding

Structure (SMILES): CC(C)Cn1c(=O)n(C)c(=O)c2[nH]c(CCN3CCN(C(c4ccccc4)c4ccccc4)CC3)nc21 [Example 1, 1-methyl-3-isobutyl-8-[2-(4-diphenylmethyl-piperazinyl)ethyl]xanthine]
- anaphylactic cutaneous reaction [1]: reduction
- IC 60 [2]: 15 µM
